# PubChem BioAssay AID1347075 (National Center for Advancing Translational Sciences (NCATS), 2019)
# About 5,500 (1.4%) of roughly 400,000 compounds were called active. The shares of active, inactive and inconclusive entries below differ from those in the screen. Calls follow the shape of the dose curve; as a rule, active = well fitted cell-killing curve with a large enough effect; inconclusive = small, poorly fitted or top-dose-only effect, or effect the other way; inactive = flat fitted curve, though single readings scatter. Where the call is inconclusive, the potency comes from a doubtful curve fit.
# Experiment: qHTS assay for MDR1-selective chemotherapeutics: Primary screen using the parental adenocarcinoma cell KB-3-1; also: nearly all actives have a fitted effect of over 60% in size
# Conditions: KB-3-1 viability, CellTiter-Glo ATP luminescence, 72 h; activity change, negative = cytotoxic: at 46.1 µM (top of the series)
# Outline: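 Cells are dispensed, compounds pinned in, plates held at 37 °C for 72 h, then CellTiter-Glo is added and luminescence read after 10 minutes. Cell line: parental KB-3-1 in phenol-red-free DMEM, 10% FBS.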
# % is scaled to controls: 0 for no effect and ±100 for the full control effect; potency is read from the fitted curve at half-maximal effect.
SMILES,Potency,"activity change, negative = cytotoxic"
Cc1cc(C)n(CCNS(=O)(=O)c2ccc(C)c(C)c2)n1,inactive,–
COc1cccc(CNc2nc3cc(-c4cccc(Cl)c4)sc3c(=O)n2C)c1OC,active: 14.6 µM,–
CC1(C)Cc2c(c(N3CCCCC3)[nH]c(=S)c2C#N)CS1,inactive,–
O=C(Cn1ncc2c3ccccc3n(Cc3ccccc3F)c2c1=O)NCCCN1CCCC1=O,active: 6.51 µM,–
COc1ccc(CC(=O)N2CCN=C2SCc2ccc([N+](=O)[O-])cc2)cc1,"inconclusive: 32.6 µM [cytotoxic, single point]",–
O=C(Nc1cccc(F)c1)NC1CCCCCCC1,"inconclusive: 11.6 µM [cytotoxic, partial curve, poor fit]",–
COc1ccc(N(C(=O)CS(=O)CC(=O)Nc2ccc(F)cc2)C(C(=O)NC2CCCCC2)c2cccs2)cc1 (configuration not stated),"inconclusive: 29.1 µM [cytotoxic, single point]",–
Cc1ccc(Cl)cc1N1CCN(C(=O)C2CCN(Cc3nc(-c4cccc(Cl)c4)oc3C)CC2)CC1,"inconclusive: 29.1 µM [cytotoxic, single point]",–
O=C(CN1CCc2cc3c(cc2C1)OCCCO3)Nc1ccc(F)cc1,inactive,–
CC1=C([N+](=O)[O-])C(c2ccccc2)C2=C(N1)c1ccccc1C2=O (configuration not stated),active: 0.82 µM,–
CCOC(=O)Nc1ccc2c(c1)C(=NNC(=S)NC)c1ccccc1-2,"inconclusive: 23.1 µM [cytotoxic, single point]",–
O=C1C(CO)C(CO)C(CO)C1CO (configuration not stated),"inconclusive: 29.1 µM [rising, single point]",–
CCCCN(CCCC)CC(O)CN(c1cc([N+](=O)[O-])ccc1OC)S(=O)(=O)c1ccccc1 (configuration not stated),"inconclusive: 29.1 µM [cytotoxic, single point]",–
CCOC(=O)C1=CN(Cc2cccc(F)c2)S(=O)(=O)N(CC)C1c1ccccc1 (configuration not stated),"inconclusive: 18.4 µM [cytotoxic, single point]",–
NC(=S)N/N=C/c1cccc(Br)c1,"inconclusive: 14.6 µM [cytotoxic, single point]",–
CCOC(=O)Cn1c(=O)n(-c2ccccc2OC)c2nc(-c3ccccc3C)nc(C(N)=O)c21,inactive,–
COc1ccc(CCN(C)C(=O)C(CCSC)NC(=O)c2ccco2)cc1OC (configuration not stated),inactive,–
COc1ccccc1Cc1c(-c2ccccc2)nc2c(C)cc(Br)cn12,"inconclusive: 29.1 µM [cytotoxic, single point]",–
COc1ccccc1-n1cnc2cc(NCc3ccccc3O)ccc21,"inconclusive: 29.1 µM [cytotoxic, single point]",–
CCOc1cc(C(=S)N2CCOCC2)ccc1OS(=O)(=O)c1ccccc1[N+](=O)[O-],–,inconclusive: -12.5%
CCOCCc1nn2c(=O)cc(COC(=O)C(CC)c3ccccc3)nc2s1 (configuration not stated),inactive,–
Cc1nnc(N2CCN(c3ccccc3F)CC2)c2c1nnn2Cc1ccccc1,inactive,–
CC(=O)Cc1nsc(NC(=O)c2ccc(F)cc2)n1,–,inconclusive: -10.9%

SMILES,Potency,"activity change, negative = cytotoxic"
COc1ccc(N2CCc3c(C)nc4c(OC)cc(OC)cc4c32)c(OC)c1,"inconclusive: 13 µM [cytotoxic, partial curve]",–
Cc1ccccc1NC(=O)CSc1nc(N)c2c3c(sc2n1)CSC(C)(C)C3,"inconclusive: 18.4 µM [cytotoxic, single point]",–
Cc1ccc(-n2c(-c3nn(C)cc3Cl)n[nH]c2=S)cc1,inactive,–
O=C(Nc1ccncc1)c1cccc(S(=O)(=O)N2CCc3ccccc32)c1,"inconclusive: 29.1 µM [cytotoxic, single point]",–
O=C1CC(c2ccco2)CC(O)=C1C=Nc1cc(Cl)cc(Cl)c1 (configuration not stated),inactive,–
c1ccc(-c2cc(NCCN3CCCCC3)c3ccccc3n2)cc1,"inconclusive: 16.4 µM [cytotoxic, single point]",–
O=C(c1sc2ccccc2c1Cl)N1CCN(CCc2ccccn2)CC1,"inconclusive: 20.6 µM [cytotoxic, partial curve, poor fit]",–
COc1ccc(N2CCCC2=N)c(OC)c1,inactive,–
Clc1ccc(-n2cc(-c3ccc(Br)cc3)[n+]3c2CCCCC3)cc1,"inconclusive: 14.6 µM [cytotoxic, partial curve]",–
O=C(Nc1nnc([C@H]2C[C@H](O)[C@@H](CO)O2)s1)c1ccc(Oc2ccccc2)cc1,inactive,–
CN1CCN(c2ccc(S(=O)(=O)Nc3ccccc3)cc2[N+](=O)[O-])CC1,"inconclusive: 23.1 µM [cytotoxic, single point]",–
CC(C)n1c(/C=C/[C@H](O)C[C@H](O)CC(=O)O)c(-c2ccc(F)cc2)c2ccccc21,"inconclusive: 18.4 µM [cytotoxic, single point]",–
Cc1ccc(Cn2c(=O)n(Cc3ccccc3Cl)c(=O)c3ccccc32)cc1,inactive,–
CC(=O)c1cccc(S(=O)(=O)N2CCC(c3nc4ccccc4[nH]3)CC2)c1,inactive,–
CC(C)CC(NC(=O)CCC(=O)OCC(=O)[C@@]1(O)CCC2[C@@H]3CCC4=CC(=O)C=C[C@]4(C)C3[C@@H](O)C[C@@]21C)C(=O)O (some centres not stated),"inconclusive: 8.2 µM [rising, partial curve, poor fit]",–
Cn1c(COc2ccc(Br)cc2)nnc1SC1CCc2ccccc2C1=O (configuration not stated),"inconclusive: 29.1 µM [cytotoxic, single point]",–
O=C(O)CCc1ccc(-c2ccccc2)n1CC(=O)Nc1ccccc1C(F)(F)F,inactive,–
O=C(Nc1ccccc1Br)C1CC(=O)N(c2ccc3c4c(cccc24)CC3)C1 (configuration not stated),active: 4.61 µM,–
Cc1cn(CC(=O)NCC2CCCO2)c(=O)[nH]c1=O (configuration not stated),"inconclusive: 1.84 µM [rising, full curve]",–
CC[C@]12c3[nH]c4cc(-c5ccco5)ccc4c3CCN1C(=O)[C@@H](CC(=O)NCc1cccc(C(F)(F)F)c1)C[C@@H]2C(=O)N1CCN(C(=O)c2ccco2)CC1,"inconclusive: 25.9 µM [cytotoxic, partial curve, poor fit]",–
COc1ccccc1CNC(=O)CCCCn1c(=O)c2ccccc2n(CC(=O)Nc2cc(Cl)ccc2C)c1=O,inactive,–
Cn1c(CN2CCCCC2)nc2cc(NC(=O)c3ccc(F)cc3)ccc21,"inconclusive: 20.6 µM [cytotoxic, single point]",–
CCOc1ccc(C(=O)CCC(=O)NCC(=O)Nc2c(C)cccc2C)cc1,"inconclusive: 11.6 µM [rising, partial curve, poor fit]",–

SMILES,Potency,"activity change, negative = cytotoxic"
O=C(NC(=S)NNC(=O)c1cccs1)c1ccco1,"inconclusive: 8.2 µM [cytotoxic, partial curve]",–
N#CC(=C1C=CC(=NO)C(Cl)=C1)c1ccc(Cl)cc1,"inconclusive: 29.1 µM [cytotoxic, single point]",–
O=C(Nc1ccc(Br)cn1)c1cccc2c1-c1ccccc1C2=O,"inconclusive: 29.1 µM [cytotoxic, single point]",–
O=C(NNC(=O)C12CC3CC(CC(C3)C1)C2)c1ccco1,"inconclusive: 29.1 µM [rising, single point]",–
O=C(Nc1ccc(SC(F)F)cc1)c1cccc2nc3ccccc3nc12,"inconclusive: 18.4 µM [cytotoxic, partial curve]",–
C[C@@H]1CN([C@H](C)CO)C(=O)CCCn2nncc2CO[C@H]1CN(C)S(=O)(=O)c1ccccc1,"inconclusive: 29.1 µM [rising, single point]",–
COc1ccc(Nc2ccc(C(F)(F)F)cc2[N+](=O)[O-])cn1,inactive,–
Cc1ccc(CNC(=O)CCS(=O)(=O)c2ccc3c(c2)CC(C)N3C(=O)C2CC2)o1 (configuration not stated),"inconclusive: 18.4 µM [cytotoxic, single point]",–
Cc1cccc(/C=N/NC(=O)c2cccc([N+](=O)[O-])c2)n1,inactive,–
CCc1c(C)nc2cc(-c3ccc(OC)cc3)[nH]n2c1=O,"inconclusive: 29.1 µM [rising, single point]",–
O=C(CCN1C(=O)[C@@H]2Cc3ccccc3CN2C1=O)NCc1ccc(Cl)cc1,"inconclusive: 23.1 µM [cytotoxic, single point]",–
CSc1nccc(Oc2cccc(C#N)c2)n1,"inconclusive: 23.1 µM [rising, partial curve, poor fit]",–
COc1cccc(NC(=S)N(CCc2c(C)[nH]c3ccc(C)cc23)Cc2cccs2)c1,active: 16.4 µM,–
Cn1c(N2CCN(C(c3ccccc3)c3ccccc3)CC2)nc2ccccc21,"inconclusive: 11.6 µM [cytotoxic, partial curve, poor fit]",–
CCN(CC)c1ccc(C(=O)OCC(=O)Nc2cccc(S(=O)(=O)NC3=NCCCCC3)c2)cc1,"inconclusive: 16.4 µM [cytotoxic, single point]",–
CCCCCCN1C(=O)CC(NC(=O)OCC2c3ccccc3-c3ccccc32)C/C=C\C1C(C)C (configuration not stated),"inconclusive: 32.6 µM [cytotoxic, partial curve, poor fit]",–
Cc1c(O)cc2c(c1O)C(=O)CC(c1ccccc1)O2 (configuration not stated),–,inconclusive: -39.1%
CCc1ccc(-n2c(=O)c3c4c(sc3n(CC(=O)NC(C)CC)c2=O)CCCC4)cc1 (configuration not stated),inactive,–
Cc1ccc(OCCN(C)C(=O)C2CCC(=O)N(Cc3ccccc3F)C2)cc1 (configuration not stated),"inconclusive: 0.0259 µM [cytotoxic, full curve]",–
Cc1cc(C)n(CCNCc2c(C(=O)N3C[C@@H](C)O[C@@H](C)C3)nc3ccc(Cl)cn23)n1,"inconclusive: 29.1 µM [rising, single point]",–
COc1ccc(N2CCN(CC(=O)Nc3cccc(S(=O)(=O)N4CCOCC4)c3)CC2)cc1,"inconclusive: 23.1 µM [cytotoxic, single point]",–

# Shown tab-delimited: entries from further up.
SMILES	Potency	activity change, negative = cytotoxic
CCCCN(CCCC)CC(O)CN(c1cc([N+](=O)[O-])ccc1OC)S(=O)(=O)c1ccccc1 (configuration not stated)	inconclusive: 29.1 µM [cytotoxic, single point]	–
CCOC(=O)C1=CN(Cc2cccc(F)c2)S(=O)(=O)N(CC)C1c1ccccc1 (configuration not stated)	inconclusive: 18.4 µM [cytotoxic, single point]	–
